The campaign covered roughly 340,000 compounds. About 6,200 (1.8%) were called active. This list was built around the results that the source calls inconclusive (neither active nor inactive); the mix of calls is not that of the screen. Calls follow the shape of the dose curve; as a rule, active = well fitted activation curve with a large enough effect; inconclusive = small, poorly fitted or top-dose-only effect; inactive = no such curve, though single readings can be large or run the other way. Where the call is inconclusive, the potency comes from a doubtful curve fit.
Experiment: A quantitative high throughput screen for small molecules that induce DNA re-replication in SW480 colon adenocarcinoma cells. Also: nearly all actives have a fitted effect of over 55% in size.
Details: Hoechst DNA content imaging, 48 h; series mostly up to 46.1 µM
In short: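 Image-based DNA-content assay: after two days of treatment, nuclei were labelled with the DNA dye Hoechst and imaged, and hits were compounds raising the count of nuclei showing high fluorescence intensity.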
Potency is read from the fitted curve at half-maximal effect.

| SMILES | Potency |
| --- | --- |
| CC1(C)CC(=O)C=C(NCc2ccc(Cl)c(Cl)c2)C1 | inactive |
| CCn1c(C(=O)NCCCN2CCc3ccccc3C2)cc2sccc21 | inconclusive: 5.8 µM [activator, partial curve, poor fit] |
| O=C(Nc1ccc(/C=C/c2nc3ccccc3o2)cc1)c1ccc(F)cc1 | inconclusive: 11.6 µM [activator, partial curve] |
| CCOc1ccc(C(=O)NCCc2cnc[nH]2)cc1 | inactive |
| O=C(Nc1cccc(-c2csc(Nc3ccc(Cl)cc3)n2)c1)c1ccccc1 | inactive |
| Cc1nc(C(C)N(C)Cc2nc(-c3ccc4c(c3)OCO4)no2)c(C)s1 (centres undefined) | active: 3.66 µM |
| N#Cc1nc(/C=C/c2ccccc2)oc1NCCCN1CCOCC1 | inconclusive: 20.6 µM [activator, partial curve, poor fit] |
| Cc1cc(NC(=O)c2cccc(S(=O)(=O)N3c4ccccc4CC3C)c2)no1 (centres undefined) | inconclusive: 20.6 µM [activator, single point] |
| N=c1n(Cc2ccc(Cl)cc2)c2ccccc2n1CC(O)COc1ccccc1 (centres undefined) | inconclusive: 29.1 µM [activator, single point] |
| Clc1cc(Br)ccc1OCCOCCN1CCOCC1 | inactive |
| COc1cccc(OC)c1C(=O)Nc1ccc(Br)c(C(=O)c2ccccc2)c1 | inactive |
| O=C(Nc1ccc2c(c1)Cc1cc([N+](=O)[O-])ccc1-2)C(F)(F)F | inconclusive: 5.8 µM [activator, full curve, poor fit] |
| Cc1nn(C)c(C(=O)N/N=C/c2cccc(Oc3ccccc3)c2)c1Br | inactive |
| Nc1ccc(C(=O)N2CCN(S(=O)(=O)/C=C/c3ccccc3)CC2)cc1[N+](=O)[O-] | inconclusive: 32.6 µM [activator, partial curve, poor fit] |
| Cn1nc(C(=O)N2CCN(S(=O)(=O)c3ccc(Cl)cc3)CC2)c2ccccc2c1=O | inactive |
| N/C(=N\S(=O)(=O)c1cc(C(F)(F)F)cc(C(F)(F)F)c1)c1ccc(Cl)cc1 | active: 10.3 µM |
| CCO[C@@H]1OC(C(=O)NCc2nc3ccccc3[nH]2)=C[C@H](C(C)(C)C)[C@H]1CCCO | inconclusive: 3.66 µM [activator, single point] |
| CCOC(=O)Cc1c(C)[nH]c(=S)[nH]c1=O | inconclusive: 3.66 µM [activator, full curve, poor fit] |
| Cc1sc2nc3n(c(=O)c2c1C)CCCCC3 | inactive |
| C[C@@]12C(=O)Nc3ccc(Br)cc3C(=O)N1[C@H]1c3cc(Cl)ccc3OC[C@@H]1[C@@H]2c1ccccc1 | inactive |
| Cc1ccccc1OCC(=O)N/N=C/c1cc2ccccc2nc1Cl | inactive |
| COc1ccc(C2C3=C(CCCC3=O)N(CC(=O)O)C3=C2C(=O)CCC3)cc1Cl | inconclusive: 23.1 µM [activator, partial curve, poor fit] |

| SMILES | Potency |
| --- | --- |
| NS(=O)(=O)c1ccc(CCNC(=O)CNC(=O)c2ccc(Oc3ccccc3)cc2)cc1 | inactive |
| COc1cc(SC)ccc1C(=O)Nc1nccs1 | inconclusive: 0.0259 µM [activator, full curve, poor fit] |
| C[C@H](CCC(=O)NCC(=O)O)[C@H]1CC[C@H]2C3[C@H](O)C[C@@H]4C[C@H](O)CC[C@]4(C)[C@H]3C[C@H](O)[C@]12C (some centres undefined) | inactive |
| O=C(CSc1nnc2ccccn12)Nc1ccc(N2CCOCC2)cc1 | inconclusive: 0.731 µM [activator, partial curve, poor fit] |
| CN(C)c1ccc2c(c1)C(=NO)c1ccccc1-2 | inactive |
| CCOc1cccc(-c2c(C(=O)N/N=C(\C)c3cccnc3)nnn2-c2nonc2N)c1 | inconclusive: 1.3 µM [activator, full curve, poor fit] |
| CCc1ccc(/C=C/C(=O)c2cc(Br)ccc(=O)c2O)cc1 | inconclusive: 20.6 µM [activator, single point] |
| CC(=O)C[C@@H](O)CC(=O)[C@@H]1OC(=O)[C@H](C)C/C=C\Cc2ccccc21 | inactive |
| NS(=O)(=O)c1ccc(Nc2nc(-c3cccnc3)cs2)cc1 | inconclusive: 29.1 µM [activator, single point] |
| O=S(=O)(c1cccc(S(=O)(=O)N2CCOCC2)c1)N1CCCCC1 | inactive |
| CC(C)OC(=O)CSc1nnc2c(n1)[nH]c1ccc(F)cc12 | inconclusive: 7.31 µM [activator, full curve, poor fit] |
| Cc1cc(-c2ccccc2)nc(Oc2cccc(C(F)(F)F)c2)c1S(C)(=O)=O | inconclusive: 29.1 µM [activator, single point] |
| Cc1ccc(NC(=S)Nc2ccc3[nH]c(=O)[nH]c3c2)cc1C | inactive |
| O=C(c1ccccc1)C(Cn1cncn1)C(Sc1ccccc1)c1ccccc1 (centres undefined) | inconclusive: 29.1 µM [activator, single point] |
| Cn1nnnc1SCCNCc1ccccc1OCc1ccc(F)cc1 | inactive |
| Cc1ccc(Nc2nnc(-c3ccc(N4CCOCC4)c([N+](=O)[O-])c3)c3ccccc23)cc1 | inconclusive: 16.4 µM [activator, single point] |
| COCCn1c(C)cc(/C=C2/NC(=O)N(c3ccc(Cl)cc3)C2=O)c1C | inconclusive: 0.461 µM [activator, full curve, poor fit] |
| CC(=O)c1cccc(N(CC(=O)Nc2ccccc2C(=O)N2CCCC2)S(C)(=O)=O)c1 | inconclusive: 29.1 µM [activator, single point] |
| COc1ccc(NS(=O)(=O)c2c(C(=O)N3CCCCCC3)c(C)n(C)c2C)cc1 | inconclusive: 11.6 µM [activator, partial curve, poor fit] |
| Cc1ccc(CNC(=O)CSc2c3c(nc4cc(Cl)ccc24)CCCC3)o1 | inconclusive: 29.1 µM [activator, single point] |
| Cc1ccc(/C=N/Nc2ncnc3nc[nH]c23)cc1 | inconclusive: 29.1 µM [activator, partial curve, poor fit] |
| O=C(Nc1ccccc1Cl)/C(Cl)=C(\Cl)S(=O)c1ccccc1 (centres undefined) | inconclusive: 29.1 µM [activator, single point] |

A stretch from the list above, as a working copy:

| SMILES | Potency |
| --- | --- |
| COc1cc(SC)ccc1C(=O)Nc1nccs1 | inconclusive: 0.0259 µM [activator, full curve, poor fit] |
| C[C@H](CCC(=O)NCC(=O)O)[C@H]1CC[C@H]2C3[C@H](O)C[C@@H]4C[C@H](O)CC[C@]4(C)[C@H]3C[C@H](O)[C@]12C (some centres undefined) | inactive |
| O=C(CSc1nnc2ccccn12)Nc1ccc(N2CCOCC2)cc1 | inconclusive: 0.731 µM [activator, partial curve, poor fit] |
| CN(C)c1ccc2c(c1)C(=NO)c1ccccc1-2 | inactive |
| CCOc1cccc(-c2c(C(=O)N/N=C(\C)c3cccnc3)nnn2-c2nonc2N)c1 | inconclusive: 1.3 µM [activator, full curve, poor fit] |
| CCc1ccc(/C=C/C(=O)c2cc(Br)ccc(=O)c2O)cc1 | inconclusive: 20.6 µM [activator, single point] |
| CC(=O)C[C@@H](O)CC(=O)[C@@H]1OC(=O)[C@H](C)C/C=C\Cc2ccccc21 | inactive |
| NS(=O)(=O)c1ccc(Nc2nc(-c3cccnc3)cs2)cc1 | inconclusive: 29.1 µM [activator, single point] |
| O=S(=O)(c1cccc(S(=O)(=O)N2CCOCC2)c1)N1CCCCC1 | inactive |
| CC(C)OC(=O)CSc1nnc2c(n1)[nH]c1ccc(F)cc12 | inconclusive: 7.31 µM [activator, full curve, poor fit] |

Source: PubChem BioAssay AID624297 (National Center for Advancing Translational Sciences (NCATS), 2012)
